In the supplement of paper PMC10338343:
± gives the standard deviation. The list shows a part of the results. The uncertainty is large for many entries.

System: EfPiwi piRISC loaded with L1MC piRNA (26 nt)
Experiment: pre-steady-state target cleavage rate (min^-1); guide: L1MC piRNA 5'p-UAACUAAAUACUAUGCAAGCUGUAGG; MIWI and MILI are mouse PIWI proteins and EfPiwi is from a freshwater sponge; tags in brackets are library labels; higher = faster piRNA-guided slicing of the target
In short: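 The pre-steady-state cleavage rate was calculated from a burst-and-steady-state fit. Data came from Cleave-'n-Seq, in which […] transcribed, DNA-blocked target RNA library was mixed with 1 nM active affinity-purified piRISC carrying one synthetic guide, with or without 500 nM GTSF1 partner protein, in HEPES–potassium acetate buffer at 33 °C for 0–8 or 0–960 min. Uncleaved targets were sequenced and normalised to depth and to weakly complementary targets, three trials were pooled, and k3 was capped at 0.0001 min^-1.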

[1] = auxiliary factor: 500 nM Ephydatia muelleri Gtsf1
[2] = auxiliary factor: none (no Gtsf1)

Sequence | pre-steady-state target cleavage rate [1] | pre-steady-state target cleavage rate [2]
UCCUGGAUCAGCUUGCAUAGUUAUUAGUUA | 0.0017 ± 0.0031 | 
UCCUGGUACAGCUUGCAUAGUAUAAAGUUA | 0.00482 ± 0.0022 | 
UCCUCGAACAGCUUGCAUAGUAUUUAGAAA | 0.00534 ± 0.0018 | 
UCCUCCUACAGCUUGCAUAGUAUUUAUUUA | 0.143 ± 0.053 | 
UCCUGGAUGUCGUUGCACAGUAUUUAGUUA | 0.0015 ± 0.0052 | 
UCCUGCUACUCGUUGCAUAGUAUUUAGUAA | 0.00326 ± 0.0038 | 
UCCUGGAUGUCGAACGUAUGUAUUUUGUUA | < 0.0001 | 
UCCUGCUACAGGUUGCAUAGUAUUUAGUAA |  | 0.000643 ± 0.0099
UCCUGGAUGUGCUUGCAUAGUAUUUAUUUA | 0.00253 ± 0.0041 | 
UCCUCCUUCAGCUUGCAUACUAUUUAGUUA | 0.00784 ± 0.0025 | 
UCCUCCUACAGCUUGCAUCGUAUUUAGUUA | 0.0492 ± 0.014 | 
UCCUGGAUGUGCUUGCAUAGUAAUUAGUUA |  | 0.00115 ± 0.012
UCCUGGUACAGUUGCAUAGUAUUUAGUUA | 0.0124 ± 0.0051 | 
UCCUGGAUGUCCUUGCAUAGUAUUGUAGUUA | 0.00313 ± 0.0036 | 
UCCUGGAUCAGCUUGCAAGUAUUUAGUUA | 0.00101 ± 0.0037 | 
UCCUGGAUGUCGAACGUAUGUACUUAGUUA |  | 0.000143 ± 0.028
UCCUGGAUGUGCUUGGUUAGUAUUUAGUUA | 0.000359 ± 0.018 | 
UCCUGGAUGUGCUUGCAAAGUAUUUAGUAA | 0.000824 ± 0.0046 | 
UCCUGGAUCAGCUUGAAUAGUAUUUAGUUA | 0.0605 ± 0.015 | 
UCCUGGAUGUGCUCUGCAUAGUAUUUAGUUA | 0.00925 ± 0.0031 | 
UCCUGGAUGAGCAUGCUUAGUAUUUAGUUA | 0.00171 ± 0.0033 | 
UCCUGGUUCAGCUUGCUUAGUAUUUAGUUA | 0.0145 ± 0.0054 | 
UCCUGGAUGAGCUUGCAUUGUAUUAAGUUA | 0.0041 ± 0.0035 | 
UCCUGGAUGAGCAUGCAUAGUUUUUAGUUA | 0.00108 ± 0.0055 | 

6 records picked at random from those above:
Sequence | pre-steady-state target cleavage rate [1] | pre-steady-state target cleavage rate [2]
UCCUGGAUGUGCUUGCAUAGUAAUUAGUUA |  | 0.00115 ± 0.012
UCCUGGAUGUGCUUGCAUAGUAUUUAUUUA | 0.00253 ± 0.0041 | 
UCCUGGAUGUGCUCUGCAUAGUAUUUAGUUA | 0.00925 ± 0.0031 | 
UCCUGGAUGAGCUUGCAUUGUAUUAAGUUA | 0.0041 ± 0.0035 | 
UCCUCCUACAGCUUGCAUCGUAUUUAGUUA | 0.0492 ± 0.014 | 
UCCUGGAUGUGCUUGCAAAGUAUUUAGUAA | 0.000824 ± 0.0046 | 

Carrying on:

Sequence | pre-steady-state target cleavage rate [1] | pre-steady-state target cleavage rate [2]
UCCUCCUACAGGUUGCAUACUAUUUAGUUA | 0.00612 ± 0.0018 | 
UCCUCCUAAAGCUUGCAUAGUAUUUAGUUA | 0.00604 ± 0.0023 | 
UCCUGGAUCACCUUGGAUAGUAUUUAGUUA | 0.00371 ± 0.0037 | 
UCCUGGAUCAGCUUGCAUAGUCAUUUAGUUA | 0.000203 ± 0.031 | 
UCCUGGAUGAGUUUGCAUAGUAUUUAGUUA | 0.0219 ± 0.006 | 
UCCUGGAUGUGCUUGCAUGGUAUUUAGUUA |  | 0.000667 ± 0.02
UCCUGCUACAGCUGCAUAGUAUUUAGUUA | 0.0102 ± 0.0026 | 
UCCUGGAUGUCGAACGUUACUAUUUAGUUA | < 0.0001 | 
UCCUGGAUCAUCUUGCAUAGUAUUUAGUUA | 0.101 ± 0.023 | 
UCCUGGAUGUCCUUGUAUAGUAUUUAGUUA | 0.00424 ± 0.0024 | 
UCCUCCUACAGCUUGCAUAGUAUUAUGUUA | 0.0049 ± 0.0026 | 
UCCUGGAUCAGCUUGCUUUGUAUUUAGUUA | 0.00384 ± 0.0042 | 
UCCUGGAUGAGCUUGCAUAGUAUUUAGUUU [g2:g21:cont:t1U] |  | 0.00181 ± 0.0086
UCCUGGAUGAGCUUGCAUAGUAUUUAAGUUA | 0.0082 ± 0.0031 | 
UCCUGGAUGUCCCUGCAUAGUAUUUAGUUA | 0.00326 ± 0.0026 | 
UCCUGGAUCAGUCUUGCAUAGUAUUUAGUUA | 0.0152 ± 0.0042 | 
UCCUGGAACAGCUUGCAAAGUAUUUAGUUA | 0.0333 ± 0.0089 | 
UCCUGGAUCAUGCUUGCAUAGUAUUUAGUUA | 0.0911 ± 0.025 | 
UCCUGGAUGUGCUUGGAUAGUUUUUAGUUA | 0.000358 ± 0.014 | 
UCCUGGUAAGCUUGCAUAGUAUUUAGUUA | 0.0168 ± 0.0044 | 
UCCUGGAUCAGGUUGCAUAGUAUUUAGUAA | 0.00537 ± 0.0021 | 
UCCUGGAUGUCGAACGAUUAGUAUUUAGUUA |  | 0.000103 ± 0.022
UCCUGCUACACCUUGCAUAGUUUUUAGUUA |  | 0.000432 ± 0.02
UCCUGGAUCGAGCUUGCAUAGUAUUUAGUUA | 0.0315 ± 0.0069 | 

Sequence | pre-steady-state target cleavage rate [1] | pre-steady-state target cleavage rate [2]
UCCUCCUACAGCUAGCAUAGUAUUUAGUAA | 0.005 ± 0.0022 | 
UCCUGGUACAGCUUGCAUAGUAUUUAGUUG [g2:g24:cont:t1G] | 0.0182 ± 0.0065 | 
UCCUGGAUCAGCUUGCAUAGUAUUUCGUUA | 0.00263 ± 0.002 | 
UCCUCCUACACGAUGCAUAGUAUUUAGUUA | 0.0593 ± 0.017 | 
UCCUGGAUGUCGUUGCAUAGUAUUUAGUGA | 0.00075 ± 0.0068 | 
UCCUGGAUGACCUUGCAUAGUAUAUAGUUA |  | 0.000241 ± 0.046
UCCUGGUACAGCUUCAUAGUAUUUAGUUA | 0.0159 ± 0.0055 | 
UCCUGGAUGUCGAUCCAUAGUAUUUUGUUA | 0.00011 ± 0.03 | 
UCCUGCUACAGCUUGCUUUGUAUUUAGUUA |  | 0.000993 ± 0.0081
UCCUGGAUCAGCUUGCUUAGUAUUUAGUAA | 0.00325 ± 0.0034 | 
UCCUGGUACUGCUUGCAUAGUAUUUAGUUA | 0.0105 ± 0.0034 | 
UCCUGCUACAGCUUGCAUUGUAUUUAGAUA |  | 0.000335 ± 0.016
UCCUGGAUGUCGAUGCUAUAGUAUUUAGUUA | 0.0006 ± 0.0077 | 
UCCUGCUACAGCUUCAUAGUAUUUAGUUA | 0.00994 ± 0.0031 | 
UCCUCCUACACCAUGCAUAGUAUUUAGUUA | 0.145 ± 0.05 | 
UCCUCCUACAGCUUGCAGAGUAUUUAGUUA |  | 0.00115 ± 0.0059
UCCUGGAUGUCCUUGCAUAGUAUUUAGUUA [g2:g19:cont:t1A] | 0.00824 ± 0.003 | 
UCCUGGAUGUCCUUGCAUAGUAUUUAUUUA | 0.00464 ± 0.0036 | 
UCCUGGAUGUCGAACGUAAGUAUGUUAGUUA | 0.000204 ± 0.022 | 
UCCUGGAUGUGCUUGCUUACUAUUUAGUUA | 0.00191 ± 0.0053 | 
UCCUGGAUGUGCUAGCAAAGUAUUUAGUUA | 0.000472 ± 0.0085 | 
UCCUGGAUGUCCUUGCAUAGUAUUUAGGUUA |  | 0.000318 ± 0.024
UCCUGGAUGUCGAACGUAUCUAUUUUGUAA | 0.000117 ± 0.021 | 
UCCUGCUAACAGCUUGCAUAGUAUUUAGUUA | 0.0114 ± 0.0038 | 
